Consider one molecule from paper PMC9507967.

The assay has as its target T1, Lem2-GFP WT (Lem2-GFP FL), expressed from a pREP81 based overexpression vector (S. pombe), Q10109.
T1 chain: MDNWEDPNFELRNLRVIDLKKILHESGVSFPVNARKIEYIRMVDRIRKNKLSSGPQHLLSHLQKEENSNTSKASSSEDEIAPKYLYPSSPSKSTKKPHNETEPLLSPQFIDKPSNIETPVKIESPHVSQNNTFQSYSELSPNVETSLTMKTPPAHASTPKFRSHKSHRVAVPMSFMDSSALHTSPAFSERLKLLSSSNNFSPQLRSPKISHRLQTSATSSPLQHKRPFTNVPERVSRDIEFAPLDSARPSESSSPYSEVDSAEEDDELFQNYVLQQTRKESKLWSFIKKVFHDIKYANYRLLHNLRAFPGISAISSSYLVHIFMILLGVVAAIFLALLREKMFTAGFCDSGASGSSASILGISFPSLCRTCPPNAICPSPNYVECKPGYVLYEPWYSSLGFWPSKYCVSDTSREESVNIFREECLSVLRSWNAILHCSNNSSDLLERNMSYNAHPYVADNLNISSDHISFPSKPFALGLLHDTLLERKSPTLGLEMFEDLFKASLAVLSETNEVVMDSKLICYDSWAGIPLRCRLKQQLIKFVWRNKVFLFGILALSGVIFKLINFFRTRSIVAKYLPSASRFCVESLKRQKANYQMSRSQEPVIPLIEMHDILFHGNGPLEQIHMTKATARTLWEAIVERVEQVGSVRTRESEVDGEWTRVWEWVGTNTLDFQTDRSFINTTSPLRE
As to the kind of experiment: co-IP; Lem2-GFP FL, ∆N or ∆MSC expressed from a pREP81 based overexpression vector in lem2∆ strains; co-immunoprecipitation of Red1-6xHA; immunoblot. The conditions noted are these: remark: other sources report otherwise. (In western blotting, separated proteins are transferred to a membrane and probed.)

Results are given in words; binding and its absence hold for the method and conditions named. Binding seen in cells or lysates may run through a third protein. Some entries that bind do so weakly or less than the wild type. Tags and fused reporters may be left off the sequences shown.

B1: Red1 tagged with 6 copies of the hemagglutinin epitope (Red1-6xHA), expressed from the endogenous locus, Q9UTR8 1-712 (protein)
chain: MSRSINLDELRKKALESKKKNEEDESNDSDKEDGEISEDDPVIDQSNSVPPMKVPTFPEQIPQLPPFDRFPGTNANFFPFGAPFMLPPALMFGPNTVPFFPQTASSNKTFSKRKRSSENSFNNRNKAKSSETSDSSNTSQSFKENRALKDTATSRPLALSSDTSYQKSEKAKSEKSPFLSTSKNSDANYSKTTNQKEAEKAVSQLFEVGVRFNDFIAEGIEPSVVHTLFLKLGLDSSSASSQGSLTLSADKAARSAKLRKIDSNLSDTHILPGDNGTPTVLPERKNLISLPLLKQDDWLSSSKPFGSSTPNVVIEFDSDDDGDDFSNSKIEQSNLEKPPSNSENGLTMSRSDYLALLRNKEEEIRRMTKLILRLESNKKPYRSPTSAADMKLPSVPVAAVDNKSKTHLDTFEKVVDLSSKADFVEAGPSISSSGASSSAATTNSDTTEQILEAPWLRKTEQIAVVHEEHPAQIKKSEIDILNNLIEKEEGELTKYQTLVKSKTEILTQLYTRKKQLLEQQGKGNVACLPKESDLSMDSITEVSAQADENSSQILSSKTSNAPNGTTETDFEDKVPLVDYISPFYRFKSYRFNQQFVERVPLKYRSLTYSNKIEPMKVFCKYETTGGVCNDDHCEASHFRDIKMTDDEIIQDLSRYIEGNDEIEKESYKSGLDIVMKNTDENTDFVDVATRIVEYHNLWKSERMTIPVAKVSI
For the molecule B1, the binding entry was “binds”.
